Assay results taken from patent publication US20040096851A1, “ABCA1 PEST domain-related compositions and methods” (priority 2002, published 2004).
Some results were stated once for a whole list of compounds, not compound by compound. For at least one compound, name, drawing or mass did not settle the structure. Some compounds share one range, which may span the group rather than tell each member.

Test system: ABCA1 protein
Experiment: ABCA1 protein turnover and level in transiently transfected 293 cells (metabolic labeling, Western, cell surface biotinylation)
Format: cell-based, human
Details: non-specific cysteine protease inhibitors
Excerpt: Plasmid constructs and cell transfection: ABCA1-FLAG was constructed as described (18). ABCA1delPEST was based on ABCA1-FLAG. Using PCR, ABCA1delPEST was constructed by deleting a nucleotide sequence that encodes mouse ABCA1 amino acids 1283-1306 and was confirmed by sequencing. HEK293 cells, in 12- or 24-well collagen-coated plates, were transiently transfected with various plasmid constructs at indicated DNA concentrations with Lipofectamine 2000 (Invitrogen Corp., San Diego, Calif., USA) at 37° C. overnight (20 hours). A construct expressing green fluorescence protein (GFP) was routinely used to visually monitor transfection efficiency (i.e., the percentage of cells expressing GFP). The transfection efficiency of 293 cells was in the range of 50-80% of cells. […]
Immunoprecipitation and immunoblot analysis of ABCA1: For immunoblot analysis of ABCA1, ABCA1-FLAG, and ABCA1delPEST-FLAG, transfected HEK293 cells, peritoneal macrophages, or primary hepatocytes were washed and scraped in PBS and lysed in RIPA buffer (10 mM Tris-HCl [pH 7.3], 1 mM MgCl2, 1.0% Nonidet P-40, 0.5% sodium deoxycholate, and 5 mM EDTA in the presence of protease inhibitors as follows: 0.5 μg/ml leupeptin, 1 μg/ml aprotinin, and 1 μg/ml pepstatin A) (Roche Molecular Biochemicals, Indianapolis, Ind., USA). […] The relative intensities of the bands were determined by densitometry. […]

CC(C)C[C@H](NC(=O)[C@H]1O[C@@H]1C(=O)O)C(=O)NCCCCN=C(N)N [E64]
increase of ABCA1 protein levels: 2-4 fold
